Source: PubChem BioAssay AID652243 (Drosophila RNAi Screening Center, 2013)
Test: 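Knock-downs that decrease or increase androgen receptor reporter signal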 (primary screen). System: Drosophila S2R+ cells. Reagent: long dsRNA against Drosophila genes. Timing: 72 h (48 h, then 24 h hormone). Challenge: synthetic androgen R1881 at 10 nM for 24 h. Measured: 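Firefly light from an androgen-responsive reporter and Renilla control light per well, raw and unnormalised, for each of two replicates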. Direction: firefly reporter light: higher = more light from androgen-responsive reporter; Renilla control light: higher = more constitutive control signal (cell number, transfection). Rule for the call: 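Hit when the log firefly-to-Renilla ratio dropped or increased by a fixed fold versus the mean of GFP or LacZ controls across duplicate plates; lowering cut given as 1.5 and as 3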. Meaning of the calls: active = hit: reporter lowered or raised; inactive = no hit.
In all, the deposit lists about 24,000 reagents; below is a random part of those with a known target gene and a result. In the full data, 246 (1%) were called active. 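Plates not normalised; calls are printed but the firefly/Renilla ratio behind them is not deposited; fold cut for lowering reported inconsistently.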 Raw values are not corrected between plates. The numbers tell different reagents against one gene apart. The record does not give: the amount of reagent.

| Gene | dsRNA no. | firefly reporter light, replicate 1 | firefly reporter light, replicate 2 | Renilla control light, replicate 1 | Renilla control light, replicate 2 | Call |
| --- | --- | --- | --- | --- | --- | --- |
| CG10031 (GeneID 33594) | 1 | 1.02e5 | 90784 | 1.34e6 | 9.86e5 | inactive |
| ND-75 (GeneID 31762) | 1 | 4.05e5 | 2.91e5 | 2.71e6 | 3.02e6 | inactive |
| Desat2 (GeneID 41536) | 1 | 1.78e5 | 2.63e5 | 1.60e6 | 2.14e6 | inactive |
| Desat2 (GeneID 41536) | 2 | 3.62e5 | 4.64e5 | 7.43e5 | 7.17e5 | inactive |
| CG11060 (GeneID 35641) | 1 | 1.09e6 | 6.85e5 | 2.56e6 | 2.02e6 | inactive |
| abs (GeneID 40530) | 1 | 70786 | 54497 | 3.65e5 | 2.40e5 | inactive |
| CG5418 (GeneID 34663) | 1 | 2.21e5 | 1.91e5 | 1.81e6 | 2.28e6 | inactive |
| CG5418 (GeneID 34663) | 2 | 8.65e5 | 9.30e5 | 6.91e5 | 8.77e5 | inactive |
| GstT1 (GeneID 35995) | 1 | 4.91e5 | 2.61e5 | 2.58e6 | 2.29e6 | inactive |
| Nup214 (GeneID 46091) | 1 | 5.50e5 | 6.37e5 | 1.17e6 | 7.59e5 | inactive |
| CG7631 (GeneID 34919) | 1 | 1.59e5 | 2.38e5 | 1.83e6 | 2.33e6 | inactive |
| 2mit (GeneID 41616) | 1 | 74119 | 75791 | 1.02e6 | 1.50e6 | inactive |
| 2mit (GeneID 41616) | 2 | 64716 | 63234 | 1.30e6 | 1.80e6 | inactive |
| 2mit (GeneID 41616) | 3 | – | – | – | – | inactive |
| alpha-Est3 (GeneID 40907) | 1 | 22116 | 42762 | 2.98e5 | 3.03e5 | inactive |
| CG42758 (GeneID 10178900) | 1 | 2.16e5 | 2.42e5 | 2.13e6 | 1.84e6 | inactive |

Next part (2 carried over from the part before).
| Gene | dsRNA no. | firefly reporter light, replicate 1 | firefly reporter light, replicate 2 | Renilla control light, replicate 1 | Renilla control light, replicate 2 | Call |
| --- | --- | --- | --- | --- | --- | --- |
| alpha-Est3 (GeneID 40907) | 1 | 22116 | 42762 | 2.98e5 | 3.03e5 | inactive |
| CG42758 (GeneID 10178900) | 1 | 2.16e5 | 2.42e5 | 2.13e6 | 1.84e6 | inactive |
| CR17438 (GeneID 10178895) | 1 | 4.03e5 | 4.25e5 | 2.56e6 | 2.73e6 | inactive |
| CR17438 (GeneID 10178895) | 2 | 38914 | 12911 | 2675 | 319 | inactive |
| CG32373 (GeneID 318000) | 1 | 77469 | 86201 | 3.48e5 | 3.59e5 | inactive |
| CG32373 (GeneID 318000) | 2 | – | – | – | – | inactive |
| CG32373 (GeneID 318000) | 3 | – | – | – | – | inactive |
| CG13310 (GeneID 39007) | 1 | 1.16e5 | 1.84e5 | 1.77e6 | 1.52e6 | inactive |
| CG13310 (GeneID 39007) | 2 | 3.66e5 | 6.00e5 | 1.11e6 | 1.78e6 | inactive |
| CG15330 (GeneID 31715) | 1 | 1.92e5 | 2.02e5 | 2.05e6 | 2.31e6 | inactive |
